Measured data: PubChem BioAssay AID1508597 (Cure First, 2020)

Assay: 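Knock-downs altering ovarian cancer cell survival with or without PARP inhibitor rucaparib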 (primary screen)
Cell system: human ovarian carcinoma lines grown from tumours: OCI-P5x (papillary serous) and OCI-C5x (clear cell)
Reagents: siRNA pool against human genes, 1.25 pmol siRNA per well
Timing: 72 h or 96 h, depending on the cell culture
Challenge: rucaparib 20 µM (about IC30) or vehicle, present until read-out
Rucaparib or vehicle: Rucaparib
Cell line: OCI-C5x (clear cell)
Measured: 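Luminescent ATP-based viability assay read 72 or 96 h after transfection, depending on culture, given as normalised percent viability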
Reading the numbers: viability, normalised: higher = more viable cells remaining
Hit rule: 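a well counts as a hit if its normalised viability is under 80 percent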
Calls: active = viability under 80%; inactive = viability 80% or more
This is a random part of the about 2,100 reagents, in one setting of the screen. 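Calls flag viability under 80% in either arm, not effects specific to rucaparib; the reference for percent is not stated.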 A reagent listed more than once was tested more than once; the source does not tell the runs apart. The record does not give: the 100% reference.

Target gene,technical replicate,"viability, normalised (%)",outcome
GINS1,1,59.5,active
GINS1,2,47.3,active
GINS1,3,47.5,active
FANCC,1,39.1,active
FANCC,2,62.9,active
FANCC,3,41.1,active
AURKC,1,70.6,active
AURKC,1,66.5,active
AURKC,2,57.7,active
AURKC,2,44.5,active
AURKC,3,87.8,inactive
AURKC,3,43.7,active
SUPT7L,1,55.7,active
SUPT7L,2,44.6,active
SUPT7L,3,44.5,active
HK1,1,43.5,active
HK1,2,56.9,active
HK1,3,46.7,active
DDX28,1,49.1,active
DDX28,2,38.2,active
DDX28,3,36.2,active
CBX7,1,57,active
CBX7,2,45.1,active
CBX7,3,38.3,active
NLK,1,64.7,active
NLK,2,56.7,active
NLK,3,45.6,active
DOT1L,1,32.7,active
DOT1L,2,30.4,active
DOT1L,3,44.6,active
UHRF2,1,85.1,inactive
UHRF2,2,65,active
UHRF2,3,43.5,active

Reprinted from above for reference:
Target gene,technical replicate,"viability, normalised (%)",outcome
AURKC,1,66.5,active
AURKC,2,57.7,active
AURKC,2,44.5,active

The listing continues:
Target gene,technical replicate,"viability, normalised (%)",outcome
STK16,1,67.8,active
STK16,2,61.1,active
STK16,3,73,active
GPX1,1,49.1,active
GPX1,2,46.7,active
GPX1,3,46.6,active
TDRD10,1,68.2,active
TDRD10,2,66.5,active
TDRD10,3,52.3,active
PIK3C2A,1,63.5,active
PIK3C2A,2,70,active
PIK3C2A,3,61,active
CDKL5,1,65.5,active
CDKL5,2,75.6,active
CDKL5,3,73.6,active
PRKAG3,1,55.9,active
PRKAG3,2,48.9,active
PRKAG3,3,51.9,active
SYK,1,69.1,active
SYK,2,69.2,active
SYK,3,89.2,inactive
ITPKA,1,53,active
ITPKA,2,38.7,active
ITPKA,3,54.4,active
